Results reported in the supplement of paper PMC3334620.
The full ranking holds about 33,000 sequences; the median of “E-score (-0.5 to 0.5)” is about -0.0034, and the highest 2% start at about 0.25. The list shows a part of the results.

Each sequence was assayed against T1, Yap3 (UniProt P38749) (assay: PBM E-score (8-mer binding enrichment) (E-score (-0.5 to 0.5)); higher = stronger / more preferred TF binding). Settings: protein concentration: 100 nM; construct: GST-full length.
T1 sequence: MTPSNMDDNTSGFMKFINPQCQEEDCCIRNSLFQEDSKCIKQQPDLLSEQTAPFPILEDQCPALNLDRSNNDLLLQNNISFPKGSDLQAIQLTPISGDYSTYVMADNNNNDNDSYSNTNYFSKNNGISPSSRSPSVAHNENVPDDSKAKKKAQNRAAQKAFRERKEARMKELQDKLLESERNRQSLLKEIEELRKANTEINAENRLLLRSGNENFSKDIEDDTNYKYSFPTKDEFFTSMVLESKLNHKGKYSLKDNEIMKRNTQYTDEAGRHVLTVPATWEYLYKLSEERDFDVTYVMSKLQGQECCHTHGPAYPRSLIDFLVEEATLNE
Procedure, shortened: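 Yeast transcription factors carrying a GST tag, as full-length proteins or DNA-binding domains, were produced by PURExpress in vitro transcription/translation. About 100-200 nM protein was applied to universal all-10-mer Agilent arrays, double-stranded by primer extension on fresh or once-stripped slides. Bound protein was detected with fluorescent anti-GST, and scans were normalised with masliner. The Universal PBM Analysis Suite gave each ungapped eight-base word, pooled with its reverse complement, an E-score, a modified Wilcoxon-Mann-Whitney statistic.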

Sequence	PBM E-score
ACCGTCGG	-0.163
AACCCATA	0.169
TCTCTGAA	-0.0643
AGTATCCC	0.0469
AACATTGT	0.143
GCTCTACC	-0.182
AAAAAGAA	0.195
AACTCGGT	0.0084
AATGAAAT	0.21
ACATGATG	-0.0314
AATTACGG	0.235
ATAGAATC	-0.0749
ACGAGAGA	-0.0425
AGCTACAA	0.024
ATGATGGC	-0.00809
GATGCTAC	0.135
CCCGTGCC	-0.271
CGATCCCC	-0.265
AGCGGCCA	-0.274
AAATCACA	0.0156
AAAATAGA	0.256
ATTCAGTC	-0.0407
CAGTTATC	-0.18
AGTGCTGC	-0.185
AAAATCTA	0.0549

Sequence	PBM E-score
CTATGAGA	-0.0545
AAACTCTA	-0.0385
CAGGTTAA	0.142
AGTCGGTA	-0.113
ATTGCGAA	-0.0182
AACCCAGG	-0.138
GGTGGTAA	0.0583
ATCATGCC	0.0975
TGGAAGAA	0.0735
ACTCTACC	0.0336
AGGAGAGA	-0.0656
CAAAAGTG	0.0317
CGCTGTCC	0.0161
GAGACTCC	-0.0962
GTCCACTA	-0.0727
AGTAAAAG	0.108
AAAGAGTG	-0.0322
CACTGCGC	-0.114
CGAAAGTC	-0.105
GTCAAGTA	-0.12
GTGAGTCA	0.00151
ATTAGTGA	0.179
CATAACCA	0.0668
AGCATTGG	0.0112
AGCCTCGC	-0.132

Sequence	PBM E-score
AACGAGTC	-0.0938
GTAAGAAA	0.101
CATCCACC	0.064
CCAGACCG	-0.105
AAAGTACT	-0.133
CCCACAGC	-0.117
AGCCCGGC	-0.249
TCCCATCA	-0.0655
AAAGCGTC	-0.114
ACCATGTG	0.0753
ATAATTAG	0.347
GGCATGTA	-0.00875
TATGGTAA	0.124
GTACAAAC	0.0838
GCGTGGAA	0.0149
GAGCGAAC	-0.103
CGGTATGA	0.14
GAGCGTCA	-0.102
ATATCTCG	0.0271
CATGCGTC	-0.151
AGCCGAGC	-0.0255
AGCGAGTG	-0.00138
AATGAAAG	0.156
AAGAGTCA	0.0394
ATAACACC	0.158

Sequence	PBM E-score
GTGTGCTA	0.0286
TCAATACA	0.162
GCCGTGAA	-0.0965
TGGCGCAA	-0.00773
ATTAACTC	0.193
AGAGCACC	-0.168
AGTCGACG	0.23
GGGTGAAA	0.0598
AGATTAAG	0.114
AGGGTAGC	-0.136
GGTGTCTA	-0.0438
GCACGTCC	-0.00927
ATCCTCGC	-0.0454
CGCGCGCA	0.156
CACCCCGA	-0.166
AACGGGAC	-0.053
TGTTCTAA	0.256
CGTACGGA	0.189
ACTATACC	0.0405
CCTAGAGG	-0.177
AAGTTACT	0.104
GTTGACCA	0.0339
ATAAGCAG	0.131
ACCCGGGC	-0.226
CGCCCGAC	-0.08

Sequence	PBM E-score
AATATAAC	0.247
AAATGGTT	-0.0164
CAGTCCAA	-0.184
ACACGAGA	-0.0736
ATGGGCCA	-0.122
AATCCACG	0.0389
ATGAAGTC	-0.071
TAAGCATA	0.161
CTAGTACC	0.0239
ACGAGAAG	-0.132
GTAGGATA	-0.00688
AATTAGCA	0.207
TCACCGAA	-0.023
CTACTCGA	-0.00855
AAAAAAGA	0.125
ACGTGATA	0.126
AAGTGTTA	0.112
TACTACAA	0.229
CATACTCG	0.0829
AGACAGCA	0.0232
ACCGAAAG	-0.0922
ATTAACGC	0.0599
TCGCCAGA	-0.0969
AATAAACC	0.17
AGCGGACA	-0.0696

Sequence	PBM E-score
ACATAAAC	0.233
AATAACCG	-0.00637
AATTTCAG	0.0354
ATAACTTG	0.134
TCCGTCAA	0.084
ATTTACAA	0.225
AGCCAAGG	-0.0619
AAAACTTA	0.135
CCTTGCCC	0.0198
CTAGACAA	-0.0572
CAGGAACA	0.0218
CTAGTCGC	-0.185
ACAGCAAG	0.247
ACGGCCCC	-0.329
AGGGGGGC	-0.442
GAAGCGGC	-0.229
AACTAGCC	-0.0476
GACGTGAA	0.0592
TACGTTCA	0.119
CACACCAC	0.189
AATCCTTC	-0.14
CCCGAGTC	-0.0607
CCGCGCCG	-0.118
ATGATGCG	0.0421
CAACGTGA	-0.0798

Sequence	PBM E-score
ATTGATCG	0.104
ATGGCAGA	0.0912
GTTTGTTA	0.0959
ATGCGCGG	-0.0394
AAACTGCG	-0.049
AGACTAGA	-0.243
TGTTGTAA	0.144
TCACAGGA	0.049
CCATCTTC	0.0621
TACATATA	0.248
ACGCTACA	0.136
GCGGAACC	-0.0148
ACACCAAC	0.0179
GGTCCGAA	0.0386
CAACAATC	0.203
CTTGTCCA	-0.0307
CGTCCGTA	-0.0229
ACCTAGAT	0.00493
AAAAGGTC	-0.0364
CAACATGC	0.00222
CTGTTTTA	0.254
CGAGTGGA	-0.0396
